Measurements reported in PubChem BioAssay AID1259405 (NCATS, 2018)
Purpose: 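Mouse-designed siRNAs used to find CHO productivity engineering targets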 (primary screen). Cell system: Chinese hamster CHO-K1 ovary cells with stable secreted eGFP expression. Reagents: single siRNA against mouse genes, 0.8 pmol siRNA per well (2 µl of 400 nM stock). Duration: 3 days. Measured: 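Per-well intracellular GFP measured by laser scanning cytometry, plus viability from ATP luminescence, each relative to plate median of non-targeting control wells, in %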. Reading the numbers: GFP, % of control: higher = more GFP per well, higher productivity; viability (ATP), % of control: higher = more viable cells (more ATP). Active means: 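Called active when intracellular GFP, relative to negative control, is at or above 120%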.
The whole screen tested about 50,000 reagents; shown is an unselected part. Of all reagents, about 4,000 (8%) are marked active. 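Mouse siRNA library applied to hamster cells; one well for each siRNA.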 The numbers tell different reagents against one gene apart.

The opening 9 entries as a preview:
GFP, % of control	viability (ATP), % of control	Call	Target gene	reagent no.
67.5	89.8	inactive	Dcpp1 (demilune cell and parotid protein 1)	1
67	70.3	inactive	Dcpp1 (demilune cell and parotid protein 1)	2
77.8	63	inactive	Dcpp1 (demilune cell and parotid protein 1)	3
48	55	inactive	Dcpp1 (demilune cell and parotid protein 1)	4
123	66.1	active	Dcpp1 (demilune cell and parotid protein 1)	5
98.1	78.3	inactive	Dcpp1 (demilune cell and parotid protein 1)	6
110	124	inactive	Ndufaf5 (NADH:ubiquinone oxidoreductase complex assembly factor 5)	1
46.7	38.8	inactive	Ndufaf5 (NADH:ubiquinone oxidoreductase complex assembly factor 5)	2
58.4	60.1	inactive	Ndufaf5 (NADH:ubiquinone oxidoreductase complex assembly factor 5)	3

The list itself, from the first entry:
GFP, % of control	viability (ATP), % of control	Call	Target gene	reagent no.
67.5	89.8	inactive	Dcpp1 (demilune cell and parotid protein 1)	1
67	70.3	inactive	Dcpp1 (demilune cell and parotid protein 1)	2
77.8	63	inactive	Dcpp1 (demilune cell and parotid protein 1)	3
48	55	inactive	Dcpp1 (demilune cell and parotid protein 1)	4
123	66.1	active	Dcpp1 (demilune cell and parotid protein 1)	5
98.1	78.3	inactive	Dcpp1 (demilune cell and parotid protein 1)	6
110	124	inactive	Ndufaf5 (NADH:ubiquinone oxidoreductase complex assembly factor 5)	1
46.7	38.8	inactive	Ndufaf5 (NADH:ubiquinone oxidoreductase complex assembly factor 5)	2
58.4	60.1	inactive	Ndufaf5 (NADH:ubiquinone oxidoreductase complex assembly factor 5)	3
41.6	41.9	inactive	Ankrd61 (ankyrin repeat domain 61)	1
61.1	63.8	inactive	Ankrd61 (ankyrin repeat domain 61)	2
124	108	active	Ankrd61 (ankyrin repeat domain 61)	3
64.9	78	inactive	Speer4f1 (spermatogenesis associated glutamate (E)-rich protein 4F1)	1
115	115	inactive	Speer4f1 (spermatogenesis associated glutamate (E)-rich protein 4F1)	2
108	58.5	inactive	Speer4f1 (spermatogenesis associated glutamate (E)-rich protein 4F1)	3
51.9	80.1	inactive	Drc11 (dynein regulatory complex subunit 11)	1
110	71.6	inactive	Drc11 (dynein regulatory complex subunit 11)	2
89.2	137	inactive	Drc11 (dynein regulatory complex subunit 11)	3
104	128	inactive	Atp8b5 (ATPase, class I, type 8B, member 5)	1
88.3	70.7	inactive	Atp8b5 (ATPase, class I, type 8B, member 5)	2
86.9	82.4	inactive	Atp8b5 (ATPase, class I, type 8B, member 5)	3
63	54.6	inactive	Nol10 (nucleolar protein 10)	1
61.7	77.1	inactive	Nol10 (nucleolar protein 10)	2
71.5	84	inactive	Nol10 (nucleolar protein 10)	3
67.1	68.1	inactive	Fgfbp3 (fibroblast growth factor binding protein 3)	1
30.5	27.1	inactive	Fgfbp3 (fibroblast growth factor binding protein 3)	2
65.4	60.1	inactive	Fgfbp3 (fibroblast growth factor binding protein 3)	3
27.1	33.7	inactive	Ghsr (growth hormone secretagogue receptor)	1
51.6	53.8	inactive	Ghsr (growth hormone secretagogue receptor)	2
49.9	44.8	inactive	Ghsr (growth hormone secretagogue receptor)	3
111	97.8	inactive	Fnbp1 (formin binding protein 1)	1
138	91.2	active	Fnbp1 (formin binding protein 1)	2
74.5	92.9	inactive	Phka1 (phosphorylase kinase alpha 1)	1
86.1	85.2	inactive	Phka1 (phosphorylase kinase alpha 1)	2
66.9	58.4	inactive	Abhd3 (abhydrolase domain containing 3)	1
95.5	76.3	inactive	Abhd3 (abhydrolase domain containing 3)	2
64.2	80.2	inactive	Abhd3 (abhydrolase domain containing 3)	3
110	95.4	inactive	Zswim1 (zinc finger SWIM-type containing 1)	1
94.5	64.1	inactive	Zswim1 (zinc finger SWIM-type containing 1)	2
96.2	109	inactive	Zswim1 (zinc finger SWIM-type containing 1)	3
93.7	59.1	inactive	Tlr3 (toll-like receptor 3)	1
91.5	65.3	inactive	Tlr3 (toll-like receptor 3)	2
94.1	93.8	inactive	Tlr3 (toll-like receptor 3)	3
79.3	83.4	inactive	Ddx50 (DExD box helicase 50)	1
59.7	57.9	inactive	Ddx50 (DExD box helicase 50)	2
188	194	active	Ddx50 (DExD box helicase 50)	3
66.2	72.5	inactive	Pcsk1 (proprotein convertase subtilisin/kexin type 1)	1
55.7	50.7	inactive	Pcsk1 (proprotein convertase subtilisin/kexin type 1)	2
65.4	56.8	inactive	Pcsk1 (proprotein convertase subtilisin/kexin type 1)	3
111	104	inactive	Spns1 (SPNS lysolipid transporter 1, lysophospholipid)	1
64.2	77.5	inactive	Spns1 (SPNS lysolipid transporter 1, lysophospholipid)	2
116	104	inactive	Spns1 (SPNS lysolipid transporter 1, lysophospholipid)	3
97.6	92.7	inactive	Dync2h1 (dynein cytoplasmic 2 heavy chain 1)	1
65.8	78.3	inactive	Dync2h1 (dynein cytoplasmic 2 heavy chain 1)	2
95.4	111	inactive	Tmc8 (transmembrane channel-like gene family 8)	1
92.5	86.2	inactive	Tmc8 (transmembrane channel-like gene family 8)	2
104	82	inactive	Tmc8 (transmembrane channel-like gene family 8)	3
70.9	79.2	inactive	Edaradd (EDAR associated via death domain)	1
130	111	active	Edaradd (EDAR associated via death domain)	2
77	71	inactive	Edaradd (EDAR associated via death domain)	3
83.2	72.9	inactive	Bop1 (block of proliferation 1)	1
139	52.3	active	Bop1 (block of proliferation 1)	2
173	98.4	active	Bop1 (block of proliferation 1)	3
32	45	inactive	Slc22a26	1
52.1	71.3	inactive	Slc22a26	2
80.4	50.5	inactive	Slc22a26	3
159	68.4	active	Foxo4 (forkhead box O4)	1
142	65.6	active	Foxo4 (forkhead box O4)	2
102	98.2	inactive	Foxo4 (forkhead box O4)	3
113	71.3	inactive	Tmtc3 (transmembrane and tetratricopeptide repeat containing 3)	1
72.3	90.2	inactive	Tmtc3 (transmembrane and tetratricopeptide repeat containing 3)	2
68.7	61.4	inactive	Tmtc3 (transmembrane and tetratricopeptide repeat containing 3)	3
72.6	67.3	inactive	Rnf20 (ring finger protein 20)	1
123	74.3	active	Rnf20 (ring finger protein 20)	2
70.1	58.1	inactive	Rnf20 (ring finger protein 20)	3
95.3	96	inactive	Calb1 (calbindin 1)	1
65.4	71.9	inactive	Calb1 (calbindin 1)	2
97.9	99.2	inactive	Ntf5 (neurotrophin 5)	1
69.3	49.6	inactive	Ntf5 (neurotrophin 5)	2
58	44.9	inactive	Ntf5 (neurotrophin 5)	3
94.1	76.6	inactive	Hes1 (hes family bHLH transcription factor 1)	1
106	88.3	inactive	Hes1 (hes family bHLH transcription factor 1)	2
84.4	56	inactive	Cela1 (chymotrypsin-like elastase family, member 1)	1
93.4	71.4	inactive	Cela1 (chymotrypsin-like elastase family, member 1)	2
61.8	41.5	inactive	Cela1 (chymotrypsin-like elastase family, member 1)	3
